Some results were stated once for a whole list of compounds, not compound by compound.
How the values were obtained:
porcine liver esterase = test: Hydrolysis of fumarate compounds in vitro by porcine liver esterase; format: in vitro ADME; details: porcine liver esterase in PBS buffer pH 7.0 to 8.0, 20 to 37° C., ca. 24 h, HPLC
[1] = Stability of fumarate compounds in PBS buffer; format: physicochemical; details: PBS 50 mM, pH 7.0 to 7.4, 20 to 37° C., 60 min, HPLC

Row | Compound | converted to monoester fumarates and/or fumaric acid (porcine liver esterase) | stable in PBS buffer [1]
1 | CS(=O)(=O)NCCOC(=O)/C=C/C(=O)OCCNS(C)(=O)=O [Compound 1, Bis[2-(methanesulfonamido)ethyl] (E)-but-2-enedioate] | > 15% | > 90%
2 | CCS(=O)(=O)NCCOC(=O)/C=C/C(=O)OCCNS(=O)(=O)CC [Compound 2, Bis[2-(ethylsulfonylamino)ethyl] (E)-but-2-enedioate] | > 15% | > 90%
3 | CC(C)S(=O)(=O)NCCOC(=O)/C=C/C(=O)OCCNS(=O)(=O)C(C)C [Compound 3, Bis[2-(isopropylsulfonylamino)ethyl] (E)-but-2-enedioate] | > 15% | > 90%
4 | O=C(/C=C/C(=O)OCCNS(=O)(=O)c1ccccc1)OCCNS(=O)(=O)c1ccccc1 [Compound 4, Bis[2-(benzenesulfonamido)ethyl] (E)-but-2-enedioate] | > 15% | > 90%
5 | C[C@H](COC(=O)/C=C/C(=O)OC[C@@H](C)NS(C)(=O)=O)NS(C)(=O)=O [Compound 5, Bis[(2R)-2-(methanesulfonamido)propyl] (E)-but-2-enedioate] | > 15% | > 90%
6 | CCS(=O)(=O)N[C@H](C)COC(=O)/C=C/C(=O)OC[C@@H](C)NS(=O)(=O)CC [Compound 6, Bis[(2R)-2-(ethylsulfonylamino)propyl] (E)-but-2-enedioate] | > 15% | > 90%
7 | CC(C)S(=O)(=O)N[C@H](C)COC(=O)/C=C/C(=O)OC[C@@H](C)NS(=O)(=O)C(C)C [Compound 7, Bis[(2R)-2-(isopropylsulfonylamino)propyl] (E)-but-2-enedioate] | > 15% | > 90%
8 | C[C@H](COC(=O)/C=C/C(=O)OC[C@@H](C)NS(=O)(=O)c1ccccc1)NS(=O)(=O)c1ccccc1 [Compound 8, Bis[(2R)-2-(benzenesulfonamido)propyl] (E)-but-2-enedioate] | > 15% | > 90%
9 | C[C@@H](COC(=O)/C=C/C(=O)OC[C@H](C)NS(C)(=O)=O)NS(C)(=O)=O [Compound 9, Bis[(2S)-2-(methanesulfonamido)propyl] (E)-but-2-enedioate] | > 15% | > 90%
10 | CCS(=O)(=O)N[C@@H](C)COC(=O)/C=C/C(=O)OC[C@H](C)NS(=O)(=O)CC [Compound 10, Bis[(2S)-2-(ethylsulfonylamino)propyl] (E)-but-2-enedioate] | > 15% | > 90%
11 | CC(C)S(=O)(=O)N[C@@H](C)COC(=O)/C=C/C(=O)OC[C@H](C)NS(=O)(=O)C(C)C [Compound 11, Bis[(2S)-2-(isopropylsulfonylamino)propyl] (E)-but-2-enedioate] | > 15% | > 90%
12 | C[C@@H](COC(=O)/C=C/C(=O)OC[C@H](C)NS(=O)(=O)c1ccccc1)NS(=O)(=O)c1ccccc1 [Compound 12, Bis[(2S)-2-(benzenesulfonamido)propyl] (E)-but-2-enedioate] | > 15% | > 90%
13 | CS(=O)(=O)NCCCOC(=O)/C=C/C(=O)OCCCNS(C)(=O)=O [Compound 13, Bis[3-(methanesulfonamido)propyl] (E)-but-2-enedioate] | > 15% | > 90%
14 | CCS(=O)(=O)NCCCOC(=O)/C=C/C(=O)OCCCNS(=O)(=O)CC [Compound 14, Bis[3-(ethylsulfonylamino)propyl] (E)-but-2-enedioate] | > 15% | > 90%
15 | CC(C)S(=O)(=O)NCCCOC(=O)/C=C/C(=O)OCCCNS(=O)(=O)C(C)C [Compound 15, Bis[3-(isopropylsulfonylamino)propyl] (E)-but-2-enedioate] | > 15% | > 90%
16 | O=C(/C=C/C(=O)OCCCNS(=O)(=O)c1ccccc1)OCCCNS(=O)(=O)c1ccccc1 [Compound 16, Bis[3-(benzenesulfonamido)propyl] (E)-but-2-enedioate] | > 15% | > 90%

Source: patent US20170022153A1, “FUMARATE COMPOUNDS, PHARMACEUTICAL COMPOSITIONS THEREOF, AND METHODS OF USE” (priority 2015, published 2017)
